Experimental data from publication PMC10813790, “Lymphocyte-Specific Protein 1 Regulates Expression and Stability of Endothelial Nitric Oxide Synthase” (Biomolecules, 2024).
No constants are given. Whether binding was seen depends on the method and setting. In cells and extracts the contact can be indirect. Some results given as binding are weak or reduced against the parent protein; the word gives no strength.

Protein sequences, listed by entry. Tags and fused reporters are not part of them.
UniProt P33241: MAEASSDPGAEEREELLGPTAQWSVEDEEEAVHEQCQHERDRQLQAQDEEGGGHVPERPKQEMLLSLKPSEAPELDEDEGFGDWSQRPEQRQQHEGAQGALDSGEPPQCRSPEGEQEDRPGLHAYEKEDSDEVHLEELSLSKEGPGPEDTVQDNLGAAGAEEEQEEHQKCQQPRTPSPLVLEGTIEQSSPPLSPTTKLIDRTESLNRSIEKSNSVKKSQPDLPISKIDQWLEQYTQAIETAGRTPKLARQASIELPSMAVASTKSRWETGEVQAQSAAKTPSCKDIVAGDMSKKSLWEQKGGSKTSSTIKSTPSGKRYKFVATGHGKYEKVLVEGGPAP

Molecular target: T1, endothelial nitric oxide synthase (eNOS), wild-type 140 kDa, human (human (endogenous in EA.hy926)) (UniProt P29474)
T1 sequence: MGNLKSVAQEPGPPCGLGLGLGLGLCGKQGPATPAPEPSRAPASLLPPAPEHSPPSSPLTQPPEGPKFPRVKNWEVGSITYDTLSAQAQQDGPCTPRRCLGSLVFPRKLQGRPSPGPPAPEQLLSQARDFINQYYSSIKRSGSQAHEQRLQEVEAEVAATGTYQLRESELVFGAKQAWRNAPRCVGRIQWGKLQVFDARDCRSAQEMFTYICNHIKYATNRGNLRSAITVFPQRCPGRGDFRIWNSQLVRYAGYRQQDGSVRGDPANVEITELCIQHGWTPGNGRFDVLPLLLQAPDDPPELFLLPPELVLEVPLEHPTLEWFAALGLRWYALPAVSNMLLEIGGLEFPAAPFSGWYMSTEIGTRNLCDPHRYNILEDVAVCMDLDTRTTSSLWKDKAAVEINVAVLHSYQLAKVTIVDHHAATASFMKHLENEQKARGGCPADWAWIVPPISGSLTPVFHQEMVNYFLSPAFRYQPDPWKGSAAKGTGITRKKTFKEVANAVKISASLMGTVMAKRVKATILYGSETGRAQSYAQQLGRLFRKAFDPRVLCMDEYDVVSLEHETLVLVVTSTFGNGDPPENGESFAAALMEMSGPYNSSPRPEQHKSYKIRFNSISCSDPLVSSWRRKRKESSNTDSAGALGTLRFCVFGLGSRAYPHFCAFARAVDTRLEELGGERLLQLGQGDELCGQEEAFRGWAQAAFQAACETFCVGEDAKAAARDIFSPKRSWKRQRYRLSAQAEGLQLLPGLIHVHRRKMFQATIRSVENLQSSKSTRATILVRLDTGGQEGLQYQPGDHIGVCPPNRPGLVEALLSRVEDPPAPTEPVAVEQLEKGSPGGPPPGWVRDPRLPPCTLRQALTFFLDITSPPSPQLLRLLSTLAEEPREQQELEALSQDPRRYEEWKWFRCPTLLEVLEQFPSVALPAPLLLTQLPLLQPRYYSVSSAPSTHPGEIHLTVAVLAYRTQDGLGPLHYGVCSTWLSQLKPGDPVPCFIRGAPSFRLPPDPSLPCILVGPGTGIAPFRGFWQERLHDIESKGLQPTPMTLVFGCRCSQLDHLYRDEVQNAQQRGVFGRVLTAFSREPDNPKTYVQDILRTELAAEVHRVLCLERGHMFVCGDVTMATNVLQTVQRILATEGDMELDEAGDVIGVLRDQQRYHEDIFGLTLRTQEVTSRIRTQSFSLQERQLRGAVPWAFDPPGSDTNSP
Experiment: co-IP; native proteins of confluent, unstimulated EA.hy926 cells; CHAPS immunoprecipitation buffer; anti-eNOS or anti-LSP1 rabbit polyclonal antibody overnight at 4 °C, protein A/G magnetic beads, washed in PBST; immunoblot

- binding: binds
Substance: lymphocyte-specific protein 1 (LSP1), human, native (from UniProt P33241 1-339)
